At least one structure is not confirmed: it was looked up by name or label, or the drawing left a doubt.
Columns and labels:
[1] = Antibiotic susceptibility (MIC), broth microdilution / agar dilution, CLSI M07; conditions: for Minimum Inhibitory Concentration (MIC): VTT-E-193585, 48 h ± 1 h, aerobic, +35±2° C., cation-adjusted Mueller Hinton Broth, fosfomycin by agar dilution; for MIC values for VTT-E-193585 compared to E. coli ATCC 25922: comparison in words
[2] = Antibiotic susceptibility (MIC), quality control strain; conditions: E. coli ATCC 25922, 18 h ± 2 h, aerobic, +35±2° C.

Q: Which “Minimum Inhibitory Concentration (MIC)” value [1] does the source give for `CN(C)[C@@H]1C(O)=C(C(N)=O)C(=O)[C@@]2(O)C(O)=C3C(=O)c4c(O)cccc4[C@@](C)(O)[C@H]3C[C@@H]12` [Tetracycline] here?
A: Its value is 0.25 µg/mL.

Q: And the “MIC values for VTT-E-193585 compared to E. coli ATCC 25922” value [1]?
A: Its value is “lower or comparable”.

Q: And the “Minimum Inhibitory Concentration (MIC)” value [2]?
A: Its value is 1 µg/mL.

Q: Which “Minimum Inhibitory Concentration (MIC)” value [1] does the source give for `NC[C@H]1O[C@H](O[C@H]2[C@H](O)[C@@H](O[C@H]3O[C@H](CO)[C@@H](O)[C@H](N)[C@H]3O)[C@H](N)C[C@@H]2N)[C@H](O)[C@@H](O)[C@@H]1O` [Kanamycin] here?
A: The value was 2 µg/mL.

Q: And the “MIC values for VTT-E-193585 compared to E. coli ATCC 25922” value [1]?
A: The value was “lower or comparable”.

Q: And the “Minimum Inhibitory Concentration (MIC)” value [2]?
A: Its value is 4 µg/mL.

From patent US20240254435A1, “VARIANT BACTERIAL STRAINS AND PROCESSES FOR PROTEIN OR BIOMASS PRODUCTION” (Solar Foods Oy, priority 2021, published 2024)
